Assay results as given in paper PMC5030362.
These are yes or no findings as the source states them, for the method shown. Binding seen in cells or lysates may run through a third protein. A result given as binding can be weak or reduced; the word gives no strength.

Chains of the proteins cited; added tags and fusions are not shown.
UniProt P03129: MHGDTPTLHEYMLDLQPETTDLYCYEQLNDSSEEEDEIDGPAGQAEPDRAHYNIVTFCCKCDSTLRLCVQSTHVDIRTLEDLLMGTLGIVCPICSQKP

Experiments:
[1] = biological target: HPV16 E7-Flag-HA, wild type (human papillomavirus type 16) (UniProt P03129); experiment: co-IP; N/Tert-1 E7-Flag-HA cells transduced with V5-tagged PTPN14 forms or fragments, harvested 48 h posttransduction; anti-HA immunoprecipitation, Western blot for V5 or PTPN14
[2] = biological target: HPV17a E7-Flag-HA (human papillomavirus type 17a); experiment: co-IP; anti-HA agarose immunoprecipitation of HA-tagged E7 from N/Tert-1 cell lysates; endogenous partners detected by Western blot

Molecule: PTPN14 ΔLinker 2, N-terminal V5 tag (from UniProt Q15678)
- binding [1]: binds

B1: PTPN14, endogenous (protein, UniProt Q15678 1-1187)
chain: MPFGLKLRRTRRYNVLSKNCFVTRIRLLDSNVIECTLSVESTGQECLEAVAQRLELRETHYFGLWFLSKSQQARWVELEKPLKKHLDKFANEPLLFFGVMFYVPNVSWLQQEATRYQYYLQVKKDVLEGRLRCTLDQVIRLAGLAVQADFGDYNQFDSQDFLREYVLFPMDLALEEAVLEELTQKVAQEHKAHSGILPAEAELMYINEVERLDGFGQEIFPVKDNHGNCVHLGIFFMGIFVRNRIGRQAVIYRWNDMGNITHNKSTILVELINKEETALFHTDDIENAKYISRLFATRHKFYKQNKICTEQSNSPPPIRRQPTWSRSSLPRQQPYILPPVHVQCGEHYSETHTSQDSIFHGNEEALYCNSHNSLDLNYLNGTVTNGSVCSVHSVNSLNCSQSFIQASPVSSNLSIPGSDIMRADYIPSHRHSAIIVPSYRPTPDYETVMRQMKRGILHTDSQSQSLRNLNIINTHAYNQPEDLVYSQPEMRERHPYTVPYGPQGVYSNKLVSPSDQRNPKNNVVPSKPGASAISHTVSTPELANMQLQGSHNYSTAHMLKNYLFRPPPPYPRPRPATSTPDLASHRHKYVSGSSPDLVTRKVQLSVKTFQEDSSPVVHQSLQEVSEPLTATKHHGTVNKRHSLEVMNSMVRGMEAMTLKSLHLPMARRNTLREQGPPEEGSGSHEVPQLPQYHHKKTFSDATMLIHSSESEEEEEEAPESVPQIPMLREKMEYSAQLQAALARIPNKPPPEYPGPRKSVSNGALRQDQASLPPAMARARVLRHGPAKAISMSRTDPPAVNGASLGPSISEPDLTSVKERVKKEPVKERPVSEMFSLEDSIIEREMMIRNLEKQKMAGLEAQKRPLMLAALNGLSVARVSGREENRVDATRVPMDERFRTLKKKLEEGMVFTEYEQIPKKKANGIFSTAALPENAERSRIREVVPYEENRVELIPTKENNTGYINASHIKVVVGGAEWHYIATQGPLPHTCHDFWQMVWEQGVNVIAMVTAEEEGGRTKSHRYWPKLGSKHSSATYGKFKVTTKFRTDSVCYATTGLKVKHLLSGQERTVWHLQYTDWPDHGCPEDVQGFLSYLEEIQSVRRHTNSMLEGTKNRHPPIVVHCSAGVGRTGVLILSELMIYCLEHNEKVEVPMMLRLLREQRMFMIQTIAQYKFVYQVLIQFLQNSRLI
- binding [2]: binds
